Results taken from article doi:10.1101/495762 (bioRxiv, 2018).
Results are given in words; binding and its absence hold for the method and conditions named. Binding seen in cells or lysates may run through a third protein. Some results given as binding are weak or reduced against the parent protein; the word gives no strength. Sequences can lack the tags named with a protein.

Columns and labels:
Experiment in all cases: cross-linking
[1] = target: T1, Smc3(K38I, K160C)-HaloTag (S. cerevisiae) (UniProt P47037)
T1 sequence: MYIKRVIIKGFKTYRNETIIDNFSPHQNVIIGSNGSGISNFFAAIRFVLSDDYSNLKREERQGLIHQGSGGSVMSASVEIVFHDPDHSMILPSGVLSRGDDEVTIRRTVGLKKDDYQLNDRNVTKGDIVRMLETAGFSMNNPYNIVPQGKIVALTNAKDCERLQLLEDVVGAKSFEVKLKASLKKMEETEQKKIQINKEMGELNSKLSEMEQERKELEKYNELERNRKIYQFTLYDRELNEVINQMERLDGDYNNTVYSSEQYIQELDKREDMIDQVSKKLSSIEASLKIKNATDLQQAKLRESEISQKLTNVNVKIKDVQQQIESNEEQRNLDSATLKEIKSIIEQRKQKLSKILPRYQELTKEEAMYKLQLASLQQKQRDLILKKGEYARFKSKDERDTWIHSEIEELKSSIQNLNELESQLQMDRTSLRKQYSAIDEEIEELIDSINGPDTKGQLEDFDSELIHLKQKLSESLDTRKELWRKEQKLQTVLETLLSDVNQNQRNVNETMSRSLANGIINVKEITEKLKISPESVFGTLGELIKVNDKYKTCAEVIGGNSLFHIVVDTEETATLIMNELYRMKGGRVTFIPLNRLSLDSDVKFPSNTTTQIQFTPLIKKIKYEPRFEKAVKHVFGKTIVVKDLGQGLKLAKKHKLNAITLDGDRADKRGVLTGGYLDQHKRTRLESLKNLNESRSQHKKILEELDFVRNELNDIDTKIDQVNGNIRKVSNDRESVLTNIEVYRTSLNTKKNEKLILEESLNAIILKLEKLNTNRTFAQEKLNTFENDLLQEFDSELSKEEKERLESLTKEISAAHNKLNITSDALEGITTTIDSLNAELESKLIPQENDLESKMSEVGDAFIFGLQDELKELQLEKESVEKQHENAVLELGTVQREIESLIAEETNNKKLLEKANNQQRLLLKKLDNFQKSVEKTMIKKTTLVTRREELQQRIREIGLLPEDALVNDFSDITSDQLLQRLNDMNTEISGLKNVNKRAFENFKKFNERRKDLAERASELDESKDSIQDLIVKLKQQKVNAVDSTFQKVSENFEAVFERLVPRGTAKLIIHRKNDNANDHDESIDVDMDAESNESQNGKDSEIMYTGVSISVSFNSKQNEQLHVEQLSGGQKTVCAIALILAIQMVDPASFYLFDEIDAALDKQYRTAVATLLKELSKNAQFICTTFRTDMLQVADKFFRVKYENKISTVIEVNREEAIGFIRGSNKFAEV

[2] = target: T2, Smc3(K160C)-HaloTag (S. cerevisiae) (UniProt P47037)
T2 sequence: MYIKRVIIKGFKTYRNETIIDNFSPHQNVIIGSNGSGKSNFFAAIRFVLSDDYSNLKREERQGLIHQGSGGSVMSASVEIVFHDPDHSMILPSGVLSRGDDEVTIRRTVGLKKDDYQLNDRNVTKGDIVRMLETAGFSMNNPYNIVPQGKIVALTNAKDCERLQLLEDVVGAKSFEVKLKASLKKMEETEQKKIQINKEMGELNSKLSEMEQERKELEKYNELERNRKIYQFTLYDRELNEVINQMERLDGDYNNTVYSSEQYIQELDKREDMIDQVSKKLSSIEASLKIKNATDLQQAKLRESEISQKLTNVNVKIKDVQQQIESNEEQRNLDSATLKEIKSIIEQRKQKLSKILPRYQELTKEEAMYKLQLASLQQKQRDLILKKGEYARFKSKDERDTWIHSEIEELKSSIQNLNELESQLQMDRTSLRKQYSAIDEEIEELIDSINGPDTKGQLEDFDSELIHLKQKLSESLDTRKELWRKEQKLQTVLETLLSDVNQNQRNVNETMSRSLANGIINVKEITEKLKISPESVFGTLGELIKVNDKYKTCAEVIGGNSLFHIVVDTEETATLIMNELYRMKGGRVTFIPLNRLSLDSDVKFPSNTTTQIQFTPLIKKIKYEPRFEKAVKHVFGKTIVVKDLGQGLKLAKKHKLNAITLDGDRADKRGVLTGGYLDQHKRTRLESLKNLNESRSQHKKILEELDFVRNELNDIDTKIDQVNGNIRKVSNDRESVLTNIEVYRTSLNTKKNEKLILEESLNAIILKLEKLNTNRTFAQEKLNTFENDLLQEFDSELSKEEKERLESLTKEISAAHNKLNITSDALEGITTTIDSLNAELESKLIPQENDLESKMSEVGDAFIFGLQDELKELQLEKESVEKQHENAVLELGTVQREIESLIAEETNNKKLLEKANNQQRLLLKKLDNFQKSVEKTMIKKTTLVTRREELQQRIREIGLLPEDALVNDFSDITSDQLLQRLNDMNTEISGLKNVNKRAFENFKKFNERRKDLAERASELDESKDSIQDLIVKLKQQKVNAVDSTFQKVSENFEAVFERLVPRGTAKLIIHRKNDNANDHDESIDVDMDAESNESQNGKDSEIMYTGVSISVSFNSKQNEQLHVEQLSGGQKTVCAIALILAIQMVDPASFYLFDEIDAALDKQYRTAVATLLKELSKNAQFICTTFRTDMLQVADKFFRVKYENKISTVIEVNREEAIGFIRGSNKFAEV

[3] = target: T3, Smc3(K160C, S1127R)-HaloTag (S. cerevisiae) (UniProt P47037)
T3 sequence: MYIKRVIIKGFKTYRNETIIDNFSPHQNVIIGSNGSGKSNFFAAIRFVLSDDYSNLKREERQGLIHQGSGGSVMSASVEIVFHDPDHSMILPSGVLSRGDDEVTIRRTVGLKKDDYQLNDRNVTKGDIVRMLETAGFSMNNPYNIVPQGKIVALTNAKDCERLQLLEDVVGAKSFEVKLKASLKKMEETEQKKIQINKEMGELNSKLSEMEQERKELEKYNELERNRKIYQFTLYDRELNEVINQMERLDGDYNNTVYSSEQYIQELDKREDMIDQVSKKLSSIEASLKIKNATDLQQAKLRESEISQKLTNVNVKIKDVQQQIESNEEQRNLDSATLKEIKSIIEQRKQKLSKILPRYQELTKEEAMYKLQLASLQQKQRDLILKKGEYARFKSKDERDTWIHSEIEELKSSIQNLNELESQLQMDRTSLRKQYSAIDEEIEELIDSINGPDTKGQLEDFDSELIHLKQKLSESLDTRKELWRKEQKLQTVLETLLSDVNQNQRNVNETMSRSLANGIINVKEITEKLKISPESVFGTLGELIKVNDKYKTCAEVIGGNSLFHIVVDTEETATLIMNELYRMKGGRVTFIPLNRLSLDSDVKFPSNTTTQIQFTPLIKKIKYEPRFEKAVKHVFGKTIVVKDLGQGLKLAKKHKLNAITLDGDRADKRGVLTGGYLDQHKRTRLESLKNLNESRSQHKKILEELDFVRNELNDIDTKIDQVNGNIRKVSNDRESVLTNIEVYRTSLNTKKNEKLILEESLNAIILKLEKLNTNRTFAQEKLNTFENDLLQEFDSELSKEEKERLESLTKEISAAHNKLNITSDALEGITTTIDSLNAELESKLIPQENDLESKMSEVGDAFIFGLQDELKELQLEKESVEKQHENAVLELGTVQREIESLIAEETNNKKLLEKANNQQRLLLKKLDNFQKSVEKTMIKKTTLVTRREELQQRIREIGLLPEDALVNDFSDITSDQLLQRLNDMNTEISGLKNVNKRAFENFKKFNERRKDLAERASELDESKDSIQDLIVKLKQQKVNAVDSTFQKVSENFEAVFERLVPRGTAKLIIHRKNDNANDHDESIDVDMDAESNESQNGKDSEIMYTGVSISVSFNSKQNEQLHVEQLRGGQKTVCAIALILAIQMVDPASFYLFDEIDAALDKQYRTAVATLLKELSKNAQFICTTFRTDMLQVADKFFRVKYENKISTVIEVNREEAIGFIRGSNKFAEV

binding [1]: binds
binding [2]: binds
binding [3]: binds
B1: Smc1(S161C) (protein, UniProt P32908 1-1225)
chain: MGRLVGLELSNFKSYRGVTKVGFGESNFTSIIGPNGSGKSNMMDAISFVLGVRSNHLRSNILKDLIYRGVLNDENSDDYDNEGAASSNPQSAYVKAFYQKGNKLVELMRIISRNGDTSYKIDGKTVSYKDYSIFLENENILIKAKNFLVFQGDVEQIAAQCPVELSRMFEEVSGSIQYKKEYEELKEKIEKLSKSATESIKNRRRIHGELKTYKEGINKNEEYRKQLDKKNELQKFQALWQLYHLEQQKEELTDKLSALNSEISSLKGKINNEMKSLQRSKSSFVKESAVISKQKSKLDYIFKDKEKLVSDLRLIKVPQQAAGKRISHIEKRIESLQKDLQRQKTYVERFETQLKVVTRSKEAFEEEIKQSARNYDKFKLNENDLKTYNCLHEKYLTEGGSILEEKIAVLNNDKREIQEELERFNKRADISKRRITEELSITGEKLDTQLNDLRVSLNEKNALHTERLHELKKLQSDIESANNQEYDLNFKLRETLVKIDDLSANQRETMKERKLRENIAMLKRFFPGVKGLVHDLCHPKKEKYGLAVSTILGKNFDSVIVENLTVAQECIAFLKKQRAGTASFIPLDTIETELPTLSLPDSQDYILSINAIDYEPEYEKAMQYVCGDSIICNTLNIAKDLKWKKGIRGKLVTIEGALIHKAGLMTGGISGDANNRWDKEEYQSLMSLKDKLLIQIDELSNGQRSNSIRAREVENSVSLLNSDIANLRTQVTQQKRSLDENRLEIKYHNDLIEKEIQPKITELKKKLDDLENTKDNLVKEKEALQNNIFKEFTSKIGFTIKEYENHSGELMRQQSKELQQLQKQILTVENKLQFETDRLSTTQRRYEKAQKDLENAQVEMKSLEEQEYAIEMKIGSIESKLEEHKNHLDELQKKFVTKQSELNSSEDILEDMNSNLQVLKRERDGIKEDIEKFDLERVTALKNCKISNINIPISSETTIDDLPISSTDNEAITISNSIDINYKGLPKKYKENNTDSARKELEQKIHEVEEILNELQPNARALERYDEAEGRFEVINNETEQLKAEEKKILNQFLKIKKKRKELFEKTFDYVSDHLDAIYRELTKNPNSNVELAGGNASLTIEDEDEPFNAGIKYHATPPLKRFKDMEYLSGGEKTVAALALLFAINSYQPSPFFVLDEVDAALDITNVQRIAAYIRRHRNPDLQFIVISLKNTMFEKSDALVGVYRQQQENSSKIITLDLSNYAE
